Assay results reported in ChEMBL document CHEMBL4513141, “CO-ADD screening of NIH (USA) - Clinical Collection” (2021).
This is one part of the list. Potency and affinity values are given separately.

Test system: Acinetobacter baumannii
Conditions: Concentration 20 uM; ASSAY_TEST Inhibition of Bacterial Growth; detection method Absorption (OD600); MEDIA CAMHB; plate type 384well; NBS; CORNING #3640; time 18 hr

SMILES	Inhibition [%]
CCOC(=O)N1CCC(=C2c3ccc(Cl)cc3CCc3cccnc32)CC1 [LORATADINE]	12.99
O=C1C(c2c(O)[nH]c3ccccc23)=Nc2ccccc21	27.29
Sc1ncnc2nc[nH]c12 [MERCAPTOPURINE ANHYDROUS]	19.41
O=C1C(CC[S+]([O-])c2ccccc2)C(=O)N(c2ccccc2)N1c1ccccc1 (stereo unspecified) [SULFINPYRAZONE]	24.87
CS(=O)(=O)O.Oc1ccc(C2CNCCc3c2cc(O)c(O)c3Cl)cc1 (stereo unspecified) [FENOLDOPAM MESYLATE]	18.57
CCC(C)(C)C(=O)O[C@H]1C[C@@H](C)C=C2C=C[C@H](C)[C@H](CC[C@@H]3C[C@@H](O)CC(=O)O3)[C@H]21 [SIMVASTATIN]	12.35
O=C(O[C@H]1[C@H](Oc2ccccc2COC(=O)C2(O)C=CCCC2=O)O[C@H](CO)[C@@H](O)[C@@H]1O)c1ccccc1 (stereo partly specified) [TREMULACIN]	8.18
Nc1ccc(O)c(C(=O)O)c1 [MESALAMINE]	6.42
O=C([O-])c1cc(=O)c2c(OCC(O)COc3cccc4oc(C(=O)[O-])cc(=O)c34)cccc2o1.[Na+].[Na+] [CROMOLYN SODIUM]	20.97
CN1CCN(CCCN2c3ccccc3Sc3ccc(C(F)(F)F)cc32)CC1.Cl.Cl [TRIFLUOPERAZINE HYDROCHLORIDE]	24.27
CN(CCOc1ccc(NS(C)(=O)=O)cc1)CCc1ccc(NS(C)(=O)=O)cc1 [DOFETILIDE]	28.46
CCN(CC)CCOC(=O)C1(C2CCCCC2)CCCCC1.Cl [DICYCLOMINE HYDROCHLORIDE]	27.79
COc1ccnc(C[S+]([O-])c2nc3cc(OC(F)F)ccc3[n-]2)c1OC.O.[Na+] (stereo unspecified) [PANTOPRAZOLE SODIUM]	25.84
CC1(C)O[C@@H]2C[C@H]3[C@@H]4C[C@H](F)C5=CC(=O)C=C[C@]5(C)[C@@]4(F)[C@@H](O)C[C@]3(C)[C@]2(C(=O)CO)O1 [FLUOCINOLONE ACETONIDE]	12.58
C=CCc1ccc(O)c(-c2ccc(O)c(CC=C)c2)c1 [HONOKIOL]	25.67
CC(C)C[C@H](NC(=O)[C@@H](O)[C@H](N)Cc1ccccc1)C(=O)O [UBENIMEX]	16.7
Nc1c2c(nc3c1CCC3)CCCC2 [IPIDACRINE]	27.58
CCc1cc(C(N)=S)ccn1 [ETHIONAMIDE]	16.23
CNCCC=C1c2ccccc2CCc2ccccc21.Cl [NORTRIPTYLINE HYDROCHLORIDE]	22.47
CNC(=C[N+](=O)[O-])NCCSCc1csc(CN(C)C)n1 [NIZATIDINE]	30.24
COc1cc(C)nc(-n2nc(C)cc2OC)n1 [EPIRIZOLE]	11.15
Cl.O=C1c2c(O)ccc(O)c2C(=O)c2c(NCCNCCO)ccc(NCCNCCO)c21	34.55
CCCc1nc(C)c2c(O)nc(-c3cc(S(=O)(=O)N4CCN(CC)CC4)ccc3OCC)nn12.O=C(O)CC(O)(CC(=O)O)C(=O)O	21.4
CC(c1cc2ccccc2s1)N(O)C(N)=O (stereo unspecified) [ZILEUTON]	10.68

Laid out differently: entries from further up
SMILES,Inhibition [%]
CNCCC=C1c2ccccc2CCc2ccccc21.Cl [NORTRIPTYLINE HYDROCHLORIDE],22.47
CNC(=C[N+](=O)[O-])NCCSCc1csc(CN(C)C)n1 [NIZATIDINE],30.24

Next part:

SMILES	Inhibition [%]
CN(C)CCC[C@@]1(c2ccc(F)cc2)OCc2cc(C#N)ccc21.O=C(O)C(=O)O [ESCITALOPRAM OXALATE]	14.48
CC(C)OC(=O)CCC/C=C\C[C@@H]1[C@@H](CC[C@@H](O)CCc2ccccc2)[C@H](O)C[C@@H]1O [LATANOPROST]	28.04
COc1cc(C)c(/C=C/C(C)=C/C=C/C(C)=C/C(=O)O)c(C)c1C [ACITRETIN]	8.14
NS(=O)(=O)c1cc2c(cc1Cl)NCNS2(=O)=O [HYDROCHLOROTHIAZIDE]	24.87
COc1cc2nc(N3CCN(C(=O)C4CCCO4)CC3)nc(N)c2cc1OC (stereo unspecified) [TERAZOSIN]	18.79
O=C1c2c(O)cc(O)cc2O[C@H](c2ccc(O)c(O)c2)[C@H]1O [(+)-TAXIFOLIN]	8.51
COC(=O)C1=C(C)NC(C)=C(C(=O)O[C@@H]2CCCN(Cc3ccccc3)C2)[C@@H]1c1cccc([N+](=O)[O-])c1.Cl	5.09
CN1CCN(c2nc3cc(C(F)(F)F)ccc3n3cccc23)CC1.O=C(O)/C=C\C(=O)O.O=C(O)/C=C\C(=O)O	3.28
C#C[C@]1(O)CC[C@H]2[C@@H]3CCc4cc(O)ccc4[C@H]3CC[C@@]21C [ETHINYL ESTRADIOL]	24.62
Cl.c1ccc2c(c1)CCCC2C1=NCCN1 (stereo unspecified) [TETRAHYDROZOLINE HYDROCHLORIDE]	16.25
CCCC(=O)Nc1ccc(OCC(O)CNC(C)C)c(C(C)=O)c1.Cl (stereo unspecified) [ACEBUTOLOL HYDROCHLORIDE]	17.91
CN(C)CCOC(c1ccc(Cl)cc1)c1ccccn1.O=C(O)/C=C\C(=O)O (stereo unspecified) [CARBINOXAMINE MALEATE]	33.6
CC(=O)[C@H]1CC[C@H]2[C@@H]3C[C@H](C)C4=CC(=O)CC[C@]4(C)[C@H]3[C@@H](O)C[C@]12C [MEDRYSONE]	11.56
OCCN1CCN(CCCN2c3ccccc3Sc3ccc(Cl)cc32)CC1 [PERPHENAZINE]	19.54
Nc1ccc(S(=O)(=O)c2ccc(N)cc2)cc1 [DAPSONE]	2.33
O=C(CCCN1CC=C(n2c(=O)[nH]c3ccccc32)CC1)c1ccc(F)cc1 [DROPERIDOL]	15.21
CC(=O)S[C@@H]1CC2=CC(=O)CC[C@]2(C)[C@H]2CC[C@@]3(C)[C@@H](CC[C@@]34CCC(=O)O4)[C@H]12 [SPIRONOLACTONE]	30.58
COc1ccc(-c2oc3c(CC=C(C)C)c(O[C@@H]4O[C@H](CO)[C@@H](O)[C@H](O)[C@H]4O)cc(O)c3c(=O)c2O[C@@H]2O[C@@H](C)[C@H](O)[C@@H](O)[C@H]2O)cc1 [ICARIIN]	19.01
COc1ccc2cc(CCC(C)=O)ccc2c1 [NABUMETONE]	23.59
CN1CCCCC1CCN1c2ccccc2Sc2ccc([S+](C)[O-])cc21.O=S(=O)(O)c1ccccc1 (stereo unspecified) [MESORIDAZINE BESYLATE]	9.07
Cc1ncc([N+](=O)[O-])n1CCO [METRONIDAZOLE]	26.53
CCN(Cc1ccncc1)C(=O)C(CO)c1ccccc1 (stereo unspecified) [TROPICAMIDE]	23.48
CCCCc1nc(Cl)c(CO)n1Cc1ccc(-c2ccccc2-c2nnn[n-]2)cc1.[K+] [LOSARTAN POTASSIUM]	12.59
CNCCCCOc1ccccc1Cc1ccccc1.Cl	28.65

4 of the compounds above, as labelled records:
COc1cc(C)nc(-n2nc(C)cc2OC)n1 [EPIRIZOLE]
  Inhibition [%]: 11.15
Cl.O=C1c2c(O)ccc(O)c2C(=O)c2c(NCCNCCO)ccc(NCCNCCO)c21
  Inhibition [%]: 34.55
CCCc1nc(C)c2c(O)nc(-c3cc(S(=O)(=O)N4CCN(CC)CC4)ccc3OCC)nn12.O=C(O)CC(O)(CC(=O)O)C(=O)O
  Inhibition [%]: 21.4
CC(c1cc2ccccc2s1)N(O)C(N)=O (stereo unspecified) [ZILEUTON]
  Inhibition [%]: 10.68

Further results follow.

SMILES	Inhibition [%]
Nc1nc(=O)c2nc(CNc3ccc(C(=O)N[C@@H](CCC(=O)O)C(=O)O)cc3)cnc2[nH]1 [FOLIC ACID]	30.13
NC(=O)N1c2ccccc2C=Cc2ccccc21 [CARBAMAZEPINE]	21.57
Cc1cccc(CN2CCN(C(c3ccccc3)c3ccc(Cl)cc3)CC2)c1.Cl.Cl (stereo unspecified)	25.5
CCN1CC(CCN2CCOCC2)C(c2ccccc2)(c2ccccc2)C1=O.Cl (stereo unspecified)	6.29
CCCN[C@H]1CCc2nc(N)sc2C1 [PRAMIPEXOLE]	8.28
CC(=CCC1=C(C)C(=O)c2ccccc2C1=O)CCCC(C)CCCC(C)CCCC(C)C (stereo unspecified)	-0.31
CC(N/C(=N\C#N)Nc1ccncc1)C(C)(C)C.O (stereo unspecified)	16.59
C[C@]12C=CC(=O)C=C1CC[C@@H]1[C@@H]2C(=O)C[C@@]2(C)[C@H]1CC[C@]2(O)C(=O)CO [PREDNISONE]	30.84
Cc1cnc(NC(=O)C2=C(O)c3ccccc3S(=O)(=O)N2C)s1 [MELOXICAM]	6.81
Cl.O=C1CN2Cc3c(ccc(Cl)c3Cl)N=C2N1 [ANAGRELIDE HYDROCHLORIDE]	21
CN(Cc1cnc2nc(N)nc(N)c2n1)c1ccc(C(=O)N[C@@H](CCC(=O)O)C(=O)O)cc1.O	21.43
C[n+]1ccccc1/C=N/O.[Cl-] [PRALIDOXIME CHLORIDE]	13.89
CNCC[C@H](Oc1cccc2ccccc12)c1cccs1.Cl [DULOXETINE HYDROCHLORIDE]	15.34
CNC(=C[N+](=O)[O-])NCCSCc1ccc(CN(C)C)o1.Cl [RANITIDINE HYDROCHLORIDE]	8.18
CC1=Nc2ccc(Cl)cc2S(=O)(=O)N1 [DIAZOXIDE]	20.27
O=C(NCCO[N+](=O)[O-])c1cccnc1 [NICORANDIL]	32.42
CC1CCN(CCCC(=O)c2ccc(F)cc2)CC1.Cl	6.18
CN1CCC(=C2c3ccccc3CC(=O)c3sccc32)CC1.O=C(O)/C=C/C(=O)O [KETOTIFEN FUMARATE]	11.38
CC1Cc2ccccc2N1NC(=O)c1ccc(Cl)c(S(N)(=O)=O)c1 (stereo unspecified) [INDAPAMIDE]	0.29
CCc1c(C)[nH]c2c1C(=O)C(CN1CCOCC1)CC2.Cl (stereo unspecified) [MOLINDONE HYDROCHLORIDE]	10.39
Cc1ccc(Cl)c(Nc2ccccc2C(=O)[O-])c1Cl.O.[Na+] [MECLOFENAMATE SODIUM]	24.06
CC(C)NCC(O)COc1ccc(COCCOC(C)C)cc1.CC(C)NCC(O)COc1ccc(COCCOC(C)C)cc1.O=C(O)/C=C/C(=O)O (stereo unspecified) [BISOPROLOL FUMARATE]	30.23
CC(=O)O[C@]1(C(C)=O)CC[C@H]2[C@@H]3C=C(C)C4=CC(=O)CC[C@]4(C)[C@H]3CC[C@@]21C [MEGESTROL ACETATE]	10.5
